Measured values published in patent publication US20240199755A1, “ANTAGONISTS AND AGONISTS OF THE TRANSFERRIN RECEPTOR-2 FOR USE IN THE TREATMENT OF DISEASES OF THE BONE” (Kymab Limited, priority 2018, published 2024).
No constants are given. Whether binding was seen depends on the method and setting. Some binding calls cover weakened binding; strength is not graded here. Tags and fused reporters may be left off the sequences shown.

Columns and labels:
[1] = biological target: T1, Tfr2 extracellular domain (Tfr2-ECD), murine, aa 103-798, recombinant His-tagged (mouse) (UniProt Q9JKX3); assay: SPR, Tfr2-ECD immobilised, BMP receptors 200 nM as analytes
T1 sequence: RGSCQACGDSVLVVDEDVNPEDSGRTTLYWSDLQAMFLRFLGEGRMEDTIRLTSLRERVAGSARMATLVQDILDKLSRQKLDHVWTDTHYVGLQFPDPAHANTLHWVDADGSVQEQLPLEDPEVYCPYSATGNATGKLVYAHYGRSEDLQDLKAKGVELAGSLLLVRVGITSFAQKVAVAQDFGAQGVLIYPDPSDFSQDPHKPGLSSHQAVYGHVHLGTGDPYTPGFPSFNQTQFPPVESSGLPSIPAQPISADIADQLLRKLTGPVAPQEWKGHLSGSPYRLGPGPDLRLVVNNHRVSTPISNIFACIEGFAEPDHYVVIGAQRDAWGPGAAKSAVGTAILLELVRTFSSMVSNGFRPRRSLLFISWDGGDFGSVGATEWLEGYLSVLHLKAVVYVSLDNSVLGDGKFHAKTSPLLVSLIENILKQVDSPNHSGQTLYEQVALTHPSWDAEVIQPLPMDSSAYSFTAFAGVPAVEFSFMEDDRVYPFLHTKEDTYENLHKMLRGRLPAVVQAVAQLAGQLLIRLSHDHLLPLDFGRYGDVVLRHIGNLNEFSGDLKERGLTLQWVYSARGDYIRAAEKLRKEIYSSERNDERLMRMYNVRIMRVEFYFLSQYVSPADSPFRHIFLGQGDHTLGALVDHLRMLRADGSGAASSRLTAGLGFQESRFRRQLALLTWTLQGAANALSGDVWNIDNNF

[2] = biological target: T1, Tfr2 extracellular domain (Tfr2-ECD), murine, aa 103-798, recombinant His-tagged (mouse); assay: SPR, Tfr2-ECD immobilised, BMPR-II at 200 nM as analyte [panel i]
[3] = biological target: T1, Tfr2 extracellular domain (Tfr2-ECD), murine, aa 103-798, recombinant His-tagged (mouse); assay: SPR binding level normalised to molar mass, Tfr2-ECD immobilised, BMP receptor 200 nM
[4] = biological target: T1, Tfr2 extracellular domain (Tfr2-ECD), murine, aa 103-798, recombinant His-tagged (mouse); assay: SPR binding level normalised to molecular weight, Tfr2-ECD immobilised, BMP receptor 200 nM [panel a]

binding [1]: binds | binding [2]: binds | binding [3]: binds | binding [4]: binds
B1: BMPR-II (BMP receptor, R&D Systems) (receptor)
chain: SQNQERLCAFKDPYQQDLGIGESRISHENGTILCSKGSTCYGLWEKSKGDINLVKQGCWSHIGDPQECHYEECVVTTTPPSIQNGTYRFCCCSTDLCNVNFTENFPPPDTTPLSPPHSFNRDET
